# PMC10791558
# By UniProt entry, the sequences of proteins in these tests, tags left out. Residues count along the entry.
# UniProt Q5S007: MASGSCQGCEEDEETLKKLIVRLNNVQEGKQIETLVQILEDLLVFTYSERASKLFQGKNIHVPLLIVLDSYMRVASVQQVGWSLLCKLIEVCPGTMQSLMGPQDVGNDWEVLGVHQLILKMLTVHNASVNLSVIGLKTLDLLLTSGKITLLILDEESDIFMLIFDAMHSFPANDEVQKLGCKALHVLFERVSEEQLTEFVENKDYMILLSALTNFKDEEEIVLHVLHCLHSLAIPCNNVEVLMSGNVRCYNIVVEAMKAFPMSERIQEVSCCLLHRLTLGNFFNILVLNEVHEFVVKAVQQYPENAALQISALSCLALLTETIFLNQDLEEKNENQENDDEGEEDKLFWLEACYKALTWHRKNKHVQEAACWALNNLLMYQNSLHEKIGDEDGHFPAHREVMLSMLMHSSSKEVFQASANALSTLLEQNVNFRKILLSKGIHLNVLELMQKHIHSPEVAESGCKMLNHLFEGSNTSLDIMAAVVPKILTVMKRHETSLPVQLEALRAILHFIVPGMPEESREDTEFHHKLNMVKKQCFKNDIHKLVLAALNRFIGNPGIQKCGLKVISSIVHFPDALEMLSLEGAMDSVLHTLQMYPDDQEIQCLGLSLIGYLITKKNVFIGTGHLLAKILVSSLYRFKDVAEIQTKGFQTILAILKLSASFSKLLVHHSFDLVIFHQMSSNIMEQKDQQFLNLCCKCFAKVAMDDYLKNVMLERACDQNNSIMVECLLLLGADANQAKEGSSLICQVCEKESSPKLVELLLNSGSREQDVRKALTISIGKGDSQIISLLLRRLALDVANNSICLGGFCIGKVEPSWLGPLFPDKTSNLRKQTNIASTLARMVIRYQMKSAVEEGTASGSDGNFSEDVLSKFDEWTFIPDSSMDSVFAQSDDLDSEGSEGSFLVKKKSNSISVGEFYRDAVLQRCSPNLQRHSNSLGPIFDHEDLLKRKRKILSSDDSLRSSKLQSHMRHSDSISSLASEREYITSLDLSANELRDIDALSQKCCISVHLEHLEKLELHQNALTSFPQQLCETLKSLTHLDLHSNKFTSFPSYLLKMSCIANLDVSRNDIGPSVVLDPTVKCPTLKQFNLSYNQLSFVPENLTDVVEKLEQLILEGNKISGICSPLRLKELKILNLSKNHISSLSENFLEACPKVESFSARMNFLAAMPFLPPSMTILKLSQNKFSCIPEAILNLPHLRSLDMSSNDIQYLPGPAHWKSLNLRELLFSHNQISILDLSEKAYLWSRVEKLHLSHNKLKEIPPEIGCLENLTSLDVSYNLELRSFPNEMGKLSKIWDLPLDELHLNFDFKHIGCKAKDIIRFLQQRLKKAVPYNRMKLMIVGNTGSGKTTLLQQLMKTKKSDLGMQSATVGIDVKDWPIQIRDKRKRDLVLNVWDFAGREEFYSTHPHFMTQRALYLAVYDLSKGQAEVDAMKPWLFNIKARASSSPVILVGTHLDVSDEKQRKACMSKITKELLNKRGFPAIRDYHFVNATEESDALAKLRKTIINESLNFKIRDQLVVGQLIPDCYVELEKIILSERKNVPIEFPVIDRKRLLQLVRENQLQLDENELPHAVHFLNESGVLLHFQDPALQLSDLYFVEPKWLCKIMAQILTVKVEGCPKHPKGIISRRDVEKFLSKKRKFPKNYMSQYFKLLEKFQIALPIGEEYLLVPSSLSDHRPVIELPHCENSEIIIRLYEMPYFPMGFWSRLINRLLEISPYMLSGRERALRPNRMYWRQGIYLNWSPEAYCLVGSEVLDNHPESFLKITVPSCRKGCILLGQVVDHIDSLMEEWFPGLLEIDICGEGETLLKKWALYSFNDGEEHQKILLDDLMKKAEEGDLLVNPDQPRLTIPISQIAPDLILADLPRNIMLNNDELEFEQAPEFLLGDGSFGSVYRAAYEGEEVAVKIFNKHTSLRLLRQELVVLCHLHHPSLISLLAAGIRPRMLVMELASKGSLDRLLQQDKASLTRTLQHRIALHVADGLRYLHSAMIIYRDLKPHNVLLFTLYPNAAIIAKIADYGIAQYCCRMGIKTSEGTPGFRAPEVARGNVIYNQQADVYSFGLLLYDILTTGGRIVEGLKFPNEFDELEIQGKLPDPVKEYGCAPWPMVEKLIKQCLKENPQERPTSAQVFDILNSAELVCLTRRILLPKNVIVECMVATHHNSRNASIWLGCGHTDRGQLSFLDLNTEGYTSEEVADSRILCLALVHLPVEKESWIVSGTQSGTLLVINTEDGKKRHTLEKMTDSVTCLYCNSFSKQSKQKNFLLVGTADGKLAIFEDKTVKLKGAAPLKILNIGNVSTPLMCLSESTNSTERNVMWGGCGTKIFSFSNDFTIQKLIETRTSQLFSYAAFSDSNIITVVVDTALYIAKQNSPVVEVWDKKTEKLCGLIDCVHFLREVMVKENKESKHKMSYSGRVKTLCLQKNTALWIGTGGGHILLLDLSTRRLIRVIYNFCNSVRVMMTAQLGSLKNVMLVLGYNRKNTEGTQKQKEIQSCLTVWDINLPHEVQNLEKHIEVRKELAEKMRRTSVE
# UniProt P60520: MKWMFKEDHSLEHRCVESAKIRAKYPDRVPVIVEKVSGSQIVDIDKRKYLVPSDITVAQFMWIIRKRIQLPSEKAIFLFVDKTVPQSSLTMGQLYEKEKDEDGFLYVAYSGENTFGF
# UniProt Q9BXW4, residues 1-126: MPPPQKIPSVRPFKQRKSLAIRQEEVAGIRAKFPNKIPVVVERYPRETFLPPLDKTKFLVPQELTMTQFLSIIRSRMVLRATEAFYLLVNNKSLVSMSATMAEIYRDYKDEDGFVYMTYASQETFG
# Results are given in words; binding and its absence hold for the method and conditions named. Binding seen in cells or lysates may run through a third protein.
# Target: GFP-tagged LRRK2 (leucine-rich repeat kinase 2) (UniProt Q5S007)
# Assay: co-IP; HEK293 cells overexpressing 3×FLAG-tagged ATG8 family proteins together with GFP-tagged LRRK2 or p62; lysis in 50 mM Tris HCl pH 7.6, 150 mM NaCl, 0.5% Triton X-100; GFP-Trap beads, 2 h at 4°C; five washes with TBS
row,binding,Substance
1,no binding,3×FLAG-tagged GABARAPL2 (from UniProt P60520 1-117)
2,no binding,3×FLAG-tagged LC3C (from UniProt Q9BXW4 1-126)
3,no binding,3×FLAG-tagged LC3A (from UniProt Q9H492 1-121)
